Experimental data from article PMC6446838.
These are yes or no findings as the source states them, for the method shown. In cells and extracts the contact can be indirect. These calls come from enrichment with a bait or labelling near it, and not all partners need be listed.

Sequences of proteins named here, by UniProt entry; tags and fusion partners are left off.
UniProt P33176: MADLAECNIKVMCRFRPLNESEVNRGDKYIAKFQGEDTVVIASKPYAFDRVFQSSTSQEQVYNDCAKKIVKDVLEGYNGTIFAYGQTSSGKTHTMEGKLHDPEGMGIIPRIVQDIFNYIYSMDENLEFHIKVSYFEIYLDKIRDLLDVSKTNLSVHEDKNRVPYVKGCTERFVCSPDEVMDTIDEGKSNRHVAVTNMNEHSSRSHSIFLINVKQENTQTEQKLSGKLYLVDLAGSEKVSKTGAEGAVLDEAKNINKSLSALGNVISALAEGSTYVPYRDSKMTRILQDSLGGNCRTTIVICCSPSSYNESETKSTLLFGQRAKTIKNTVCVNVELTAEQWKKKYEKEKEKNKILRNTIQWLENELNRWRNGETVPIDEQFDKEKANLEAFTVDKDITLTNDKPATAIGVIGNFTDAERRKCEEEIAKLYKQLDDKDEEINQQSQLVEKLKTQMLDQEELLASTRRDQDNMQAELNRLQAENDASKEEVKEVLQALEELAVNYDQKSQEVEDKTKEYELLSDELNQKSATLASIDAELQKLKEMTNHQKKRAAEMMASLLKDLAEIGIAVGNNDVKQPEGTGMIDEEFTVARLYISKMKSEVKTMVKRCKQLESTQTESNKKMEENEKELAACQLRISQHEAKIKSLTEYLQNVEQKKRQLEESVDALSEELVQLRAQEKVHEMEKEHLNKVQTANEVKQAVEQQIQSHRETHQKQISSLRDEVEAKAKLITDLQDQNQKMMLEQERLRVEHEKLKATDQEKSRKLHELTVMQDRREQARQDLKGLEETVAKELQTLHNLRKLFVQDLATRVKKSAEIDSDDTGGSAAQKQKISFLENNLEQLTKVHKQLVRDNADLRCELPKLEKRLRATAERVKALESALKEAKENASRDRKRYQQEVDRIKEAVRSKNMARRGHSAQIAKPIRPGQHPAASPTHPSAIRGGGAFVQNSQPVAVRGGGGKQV

Assays:
[1] = molecular target: full-length KIF5B-GFP with C-terminal Strep-tag (human) (UniProt P33176); experiment: affinity purification with mass spectrometry + pull-down; Strep-tagged kinesin-GFP purified from HEK293T lysate on StrepTactin beads, washed with a low-ionic-strength buffer; copurifying endogenous proteins found by mass spectrometry and Western blotting
[2] = molecular target: full-length KIF5B-GFP with C-terminal Strep-tag (human) (UniProt P33176); experiment: affinity purification with mass spectrometry + pull-down; as a2, but the ionic strength of the washing buffer was increased (high-salt wash buffer with 1.5 M NaCl)

binding [1]: binds
binding [2]: binds weakly
B1: MAP7D3, endogenous in HEK293T cells (protein, UniProt Q8IWC1 1-876)
chain: MMADGAAAGAGGSPSLRELRARMVAAANEIAKERRKQDVVNRVATHSSNIRSTFKPVIDGSMLKNDIKQRLARERREEKRRQQDANKETQLLEKERKTKLQYEKQMEERQRKLKERKEKEEQRRIAAEEKRHQKDEAQKEKFTAILYRTLERRRLADDYQQKRWSWGGSAMANSESKTANKRSASTEKLEQGTSALIRQMPLSSAGLQNSVAKRKTDKERSSSLNRRDSNLHSSTDKEQAERKPRVTGVTNYVMQYVTVPLRKCTSDELRAVMFPMSTMKIPPQTKVEESPLEKVETPPKASVDAPPQVNVEVFCNTSMEASPKAGVGMAPEVSTDSFPVVSVDVSPVVSTYDSEMSMDASPELSIEALPKVDLETVPKVSIVASPEASLEAPPEVSLEALPEVSVEAAPEGSLEAPPKGSAEVAPKESVKGSPKESMEASPEAMVKASPKTSLEASMEASPKAKARDAPKKSEMDKQALIPIAKKRLSSYTECYKWSSSPENACGLPSPISTNRQIQKNCPPSPLPLISKQSPQTSFPYKIMPIQHTLSVQSASSTVKKKKETVSKTTNRCEALSQRHMIYEESGNKSTAGIMNAEAATKILTELRRLAREQREKEEEERQREEMQQRVIKKSKDMAKEAVGGQAEDHLKLKDGQQQNETKKKKGWLDQEDQEAPLQKGDAKIKAQEEADKRKKEHERIMLQNLQERLERKKRIEEIMKRTRKTDVNASKVTETSSHDIYEEAEADNEESDKDSLNEMFPSAILNGTGSPTKFKMPFNNAKKMTHKLVFLEDGTSQVRKEPKTYFNGDLKNFRQKSMKDTSIQEVVSRPSSKRMTSHTTKTRKADETNTTSRSSAQTKSEGFHDILPKSSDTFRQ
